Measurements published in article PMC5458519, “Splicing modulators act at the branch point adenosine binding pocket defined by the PHF5A–SF3b complex” (Nature Communications, 2017).
No constants are given. Whether binding was seen depends on the method and setting. Some entries that bind do so weakly or less than the wild type.

Amino acid sequences for entries named in this document (tags omitted). Residues count along the entry.
UniProt O75533, residues 454-1304: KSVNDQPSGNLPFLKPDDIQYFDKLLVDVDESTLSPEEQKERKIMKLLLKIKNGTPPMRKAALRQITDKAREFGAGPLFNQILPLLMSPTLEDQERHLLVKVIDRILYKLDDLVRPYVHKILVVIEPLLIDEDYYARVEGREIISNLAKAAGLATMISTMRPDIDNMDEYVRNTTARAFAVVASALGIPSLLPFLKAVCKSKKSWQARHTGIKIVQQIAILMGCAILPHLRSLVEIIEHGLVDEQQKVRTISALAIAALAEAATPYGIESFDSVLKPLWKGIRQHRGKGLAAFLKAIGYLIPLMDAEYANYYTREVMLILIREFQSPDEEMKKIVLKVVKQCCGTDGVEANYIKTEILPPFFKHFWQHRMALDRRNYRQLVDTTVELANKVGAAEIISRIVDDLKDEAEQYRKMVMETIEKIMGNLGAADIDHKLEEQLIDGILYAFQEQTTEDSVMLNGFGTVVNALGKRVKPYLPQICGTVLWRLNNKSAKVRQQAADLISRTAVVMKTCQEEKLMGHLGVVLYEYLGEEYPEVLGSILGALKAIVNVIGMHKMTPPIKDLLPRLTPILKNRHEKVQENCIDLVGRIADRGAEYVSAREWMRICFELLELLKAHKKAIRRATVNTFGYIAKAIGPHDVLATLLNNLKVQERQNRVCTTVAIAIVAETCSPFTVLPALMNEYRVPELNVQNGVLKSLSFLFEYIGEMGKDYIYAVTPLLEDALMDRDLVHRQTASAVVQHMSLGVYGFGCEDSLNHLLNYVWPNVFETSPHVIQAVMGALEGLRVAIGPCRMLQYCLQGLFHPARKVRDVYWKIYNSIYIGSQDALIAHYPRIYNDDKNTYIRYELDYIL
UniProt Q15393: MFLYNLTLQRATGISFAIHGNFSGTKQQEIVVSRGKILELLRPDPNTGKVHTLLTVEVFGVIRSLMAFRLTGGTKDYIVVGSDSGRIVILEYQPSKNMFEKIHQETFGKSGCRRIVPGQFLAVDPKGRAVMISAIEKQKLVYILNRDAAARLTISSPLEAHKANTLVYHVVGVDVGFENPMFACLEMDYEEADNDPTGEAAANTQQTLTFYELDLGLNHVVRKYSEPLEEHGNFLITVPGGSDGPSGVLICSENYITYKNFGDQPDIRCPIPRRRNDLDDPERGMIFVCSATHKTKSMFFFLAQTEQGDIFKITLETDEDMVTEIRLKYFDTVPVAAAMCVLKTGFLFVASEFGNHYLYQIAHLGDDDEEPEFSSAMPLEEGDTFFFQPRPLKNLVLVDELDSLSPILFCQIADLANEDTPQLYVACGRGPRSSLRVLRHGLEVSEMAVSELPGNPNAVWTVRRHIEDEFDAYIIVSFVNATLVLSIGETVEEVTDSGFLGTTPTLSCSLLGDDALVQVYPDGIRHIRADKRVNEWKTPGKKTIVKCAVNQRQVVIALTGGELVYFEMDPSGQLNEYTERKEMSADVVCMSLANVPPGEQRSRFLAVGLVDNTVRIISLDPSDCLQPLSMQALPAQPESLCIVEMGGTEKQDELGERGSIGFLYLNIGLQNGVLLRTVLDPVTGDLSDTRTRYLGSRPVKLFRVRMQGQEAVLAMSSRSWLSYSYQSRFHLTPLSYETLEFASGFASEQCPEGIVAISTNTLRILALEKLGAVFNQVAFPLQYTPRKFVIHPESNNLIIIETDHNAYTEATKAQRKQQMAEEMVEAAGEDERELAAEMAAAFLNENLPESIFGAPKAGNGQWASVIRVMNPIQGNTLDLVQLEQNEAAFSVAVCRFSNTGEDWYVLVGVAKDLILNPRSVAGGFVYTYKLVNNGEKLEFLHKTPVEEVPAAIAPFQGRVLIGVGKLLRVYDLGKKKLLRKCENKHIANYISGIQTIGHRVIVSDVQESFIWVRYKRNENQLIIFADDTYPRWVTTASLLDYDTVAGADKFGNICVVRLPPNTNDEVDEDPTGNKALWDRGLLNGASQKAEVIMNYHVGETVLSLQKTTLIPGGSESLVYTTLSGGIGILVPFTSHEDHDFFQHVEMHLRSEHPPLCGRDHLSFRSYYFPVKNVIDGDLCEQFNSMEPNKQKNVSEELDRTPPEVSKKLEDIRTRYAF

Target: SF3B1 HEAT repeat domain (residues 454-1,304), N-terminal FLAG tag (human) (UniProt O75533)
Assay: co-purification of co-expressed proteins (nickel beads, FLAG beads, gel filtration); four baculoviruses co-infected into SF21 cells; lysis in 40 mM HEPES pH 8.0, 500 mM NaCl, 10% glycerol, 1 mM TCEP; batch purification on nickel beads and FLAG beads, then Superdex 200 in 20 mM HEPES pH 8.0, 300 mM NaCl, 10% glycerol, 1 mM TCEP

## SF3B3, full-length, N-terminal His-tag (from UniProt Q15393 1-1217)
  binding: binds
